This is an account of results in PMC11464796.

Chains of the proteins cited; added tags and fusions are not shown. Lines headed by an entry give the natural chain unless they say otherwise; changes in a name come on top.
UniProt A0QW02: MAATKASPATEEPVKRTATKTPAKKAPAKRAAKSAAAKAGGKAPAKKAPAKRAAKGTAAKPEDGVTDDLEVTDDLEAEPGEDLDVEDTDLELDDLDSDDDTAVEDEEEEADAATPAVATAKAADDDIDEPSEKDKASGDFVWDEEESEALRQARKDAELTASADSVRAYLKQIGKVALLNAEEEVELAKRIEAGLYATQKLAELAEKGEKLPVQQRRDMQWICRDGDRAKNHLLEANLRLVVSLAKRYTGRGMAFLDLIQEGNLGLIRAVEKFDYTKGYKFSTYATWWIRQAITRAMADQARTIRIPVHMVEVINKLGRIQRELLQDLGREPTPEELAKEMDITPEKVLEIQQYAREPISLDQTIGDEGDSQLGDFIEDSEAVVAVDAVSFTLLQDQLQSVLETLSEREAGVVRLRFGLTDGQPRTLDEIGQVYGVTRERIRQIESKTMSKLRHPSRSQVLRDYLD
UniProt A0QVZ5: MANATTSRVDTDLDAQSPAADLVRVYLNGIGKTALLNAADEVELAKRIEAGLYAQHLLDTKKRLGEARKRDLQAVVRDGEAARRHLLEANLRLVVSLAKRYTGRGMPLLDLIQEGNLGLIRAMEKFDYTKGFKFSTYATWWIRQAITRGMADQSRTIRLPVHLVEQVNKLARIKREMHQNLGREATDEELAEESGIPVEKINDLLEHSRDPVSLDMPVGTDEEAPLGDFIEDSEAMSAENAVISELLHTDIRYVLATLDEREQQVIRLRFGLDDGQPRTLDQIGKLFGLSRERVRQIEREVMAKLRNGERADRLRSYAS
UniProt A0QZ11: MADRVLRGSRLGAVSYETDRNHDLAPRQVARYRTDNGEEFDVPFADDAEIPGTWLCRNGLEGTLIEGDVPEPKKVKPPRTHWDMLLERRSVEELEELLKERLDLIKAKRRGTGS
UniProt A0R561: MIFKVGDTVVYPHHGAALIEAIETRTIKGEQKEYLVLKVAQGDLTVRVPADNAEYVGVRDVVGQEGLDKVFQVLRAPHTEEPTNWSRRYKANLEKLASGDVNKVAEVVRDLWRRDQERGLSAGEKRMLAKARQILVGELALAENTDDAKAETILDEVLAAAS

Results are given in words; binding and its absence hold for the method and conditions named. In cells and extracts the contact can be indirect. Here binding means that the protein was enriched with, or labelled near, the bait; the list need not be complete. A no says only that the protein was not detected with the bait. Where a sequence is shown, tags or fusion partners need not be part of it.

The target in the test is T1, Msm HelD-FLAG (Mycobacterium smegmatis) (UniProt A0QUE0).
T1 sequence: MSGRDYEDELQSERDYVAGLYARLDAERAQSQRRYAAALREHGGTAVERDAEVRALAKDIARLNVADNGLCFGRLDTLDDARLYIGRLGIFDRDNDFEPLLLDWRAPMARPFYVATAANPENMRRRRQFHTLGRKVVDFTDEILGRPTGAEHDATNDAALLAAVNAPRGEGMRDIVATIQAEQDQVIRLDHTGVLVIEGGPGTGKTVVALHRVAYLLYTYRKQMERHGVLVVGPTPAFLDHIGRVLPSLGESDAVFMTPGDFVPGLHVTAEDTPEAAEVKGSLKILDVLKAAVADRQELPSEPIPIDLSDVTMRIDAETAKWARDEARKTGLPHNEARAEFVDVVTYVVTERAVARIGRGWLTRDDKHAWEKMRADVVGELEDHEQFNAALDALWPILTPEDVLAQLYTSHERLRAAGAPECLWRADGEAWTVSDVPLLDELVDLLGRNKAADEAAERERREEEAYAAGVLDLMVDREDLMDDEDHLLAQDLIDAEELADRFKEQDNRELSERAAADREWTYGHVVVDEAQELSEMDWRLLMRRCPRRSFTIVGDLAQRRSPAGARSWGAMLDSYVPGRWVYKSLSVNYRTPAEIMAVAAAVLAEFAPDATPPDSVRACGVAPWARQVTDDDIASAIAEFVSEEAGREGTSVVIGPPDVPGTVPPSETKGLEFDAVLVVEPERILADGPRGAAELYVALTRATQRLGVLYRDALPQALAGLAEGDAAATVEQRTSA
Description: affinity purification with mass spectrometry; HelD-FLAG captured from M. smegmatis lysate (exponential and stationary phase) on anti-FLAG M2 agarose, 14 h, benzonase-treated and untreated lysates, eluted with 3xFLAG peptide; No-Tag strain as control; SDS-PAGE and LC-MS/MS.
In the case of “Msm σ^A (endogenous) (from UniProt A0QW02)”, the binding result is reported as “binds”.
Under “Msm σ^B (endogenous) (from UniProt A0QVZ5 1-319)” stands “binds”.
The result for “Msm RbpA (endogenous) (from UniProt A0QZ11 1-114)” reads “binds”; that for “Msm CarD (endogenous) (from UniProt A0R561 1-162)”, “no binding”.
